# Measurements reported in US20030114646A1 (Human Genome Sciences, published 2003).
# B1: human Cystatin F (recombinant, produced in a baculovirus system) (other)
# chain: GPSPDTCSQDLNSRVKPGFPKTIKTNDPGVLQAARYSVEKFNNCTNDMFLFKESRITRALVQIVKGLKYMLEVEIGRTTCKKNQHLRLDDCDFQTNHTLKQTLSCYSEVWVVPWLQHFEVPVLRCH
# notes: 20-145 is used here; also called recombinant Cystatin F
# Biological target: cathepsin B
# Experiment: protease inhibition assay with substrate, apparent Ki
binder,measurement,value
B1,binding,no binding (tested: much greater than 1000 nM)

# Results are given in words; binding and its absence hold for the method and conditions named.
